Tested on: SK-Hep-1 human hepatocellular cancer
Experiment: SK-Hep-1 human hepatocellular cancer xenografts in nude mice
Format: in vivo
Conditions: vs control; 10 μg/day s.c., day 135
Protocol: SK-Hep-1 cancers were transplanted s.c. into both flank areas of 66 female nude mice, and allowed to grow for 47 days before starting the treatment with GH-RH antagonists. The mice were randomly assigned into 4 experimental groups with 8 animals in each group and received single daily injections for 135 days as follows: 1. Control (vehicle solution); 2. JMR-132 (10 μg/day s.c.); 3. Peptide 1109 (5 μg/day s.c.); 4. Peptide 1109 (10 μg/day s.c.). Tumor volumes were measured once a week. The experiment was ended on day 135 by sacrificing the mice under Isoflurane anesthesia. Resulting tumors were cleaned, weighed, and snap-frozen until further analyses. Statistical analyses of the measurement results were done by two-tailed t-test, p<0.05 being considered significant. Data are presented as the means±S.E.

[PhAc^0-Tyr^1, D-Arg^2, Cpa^6, Ala^8, Har^9, Tyr(Me)^10, His^11, Abu^15, Glu^17, His^20, Nle^27, D-Arg^28, Har^29]hGH-RH(1-29)NH2 [Peptide 1109]
Statistical significance of the inhibitory effect: statistically significant

[PhAc^0-Tyr^1, D-Arg^2, Cpa^6, Ala^8, Har^9, Tyr(Me)^10, His^11, Abu^15, His^20, Nle^27, D-Arg^28, Har^29]hGH-RH(1-29)NH2 [JMR-132, reference compound]
Statistical significance of the inhibitory effect: not significant

Reference: patent US9260504B2 (University of Miami, priority 2008, dated 2016)
